This is one part of the list. The main result of the screen is listed elsewhere. These columns were measured beside it and carry no call. Compounds called inactive in the main read-out are mostly missing here. Potencies come from curve fits of mixed quality, noted in brackets.
Experiment: qHTS Assay to Find Inhibitors of Chronic Active B-Cell Receptor Signaling
Details: ABC-DLBCL IkBa-CBG/CBR reporter, luminescence ratio (green luciferase fused to IkBa over red control in TMD8 lymphoma cells), 4 h
In short: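 Compounds up to 46 uM were incubated four hours with TMD8 cells whose green CBG68 luciferase is fused to IkappaBalpha; red CBR luminescence normalised the signal, and concentration-effect curves were fitted to fusion, red and ratio data.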

[1] = measured here: CBR red luminescence, cell number
[2] = measured here: IkBa-CBG green luminescence

Cn1nnnc1Sc1ncnc2scc(-c3ccsc3)c12
AC50 [1]: 10.3 µM [falling, single point]

COc1ccc(N2CCC(CNC(=O)Nc3ccc(C)c(C)c3)C2)cc1 (stereo not given)
AC50 [1]: 16.4 µM [rising, partial curve]

O=C(Nc1ccc(F)cc1)c1nc[nH]c1C(=O)O
AC50 [1]: 35.5 µM [falling, single point]

c1ccc(CSc2nnc(-c3ccco3)c(-c3ccco3)n2)cc1
AC50 [1]: 2.06 µM [falling, partial curve, poor fit]

O=C(Nc1ccc2c(c1)OCCO2)C1CCCN(S(=O)(=O)c2cnc[nH]2)C1 (stereo not given)
AC50 [1]: 18.4 µM [falling, single point]

Cn1c(=O)oc2cc(S(=O)(=O)Nc3ccc(F)cc3)ccc21
AC50 [1]: 5.01 µM [falling, partial curve]

O=C(CCc1nc2ccccc2[nH]1)Nc1ccccc1
AC50 [1]: 32.6 µM [falling, partial curve, poor fit]

CCCCCCCCCCCCCCCC[n+]1cccc2ccccc21
AC50 [1]: 25.9 µM [falling, single point]

COCC(=O)Nc1nnc(Cc2ccc(OC)c(OC)c2)s1
AC50 [1]: 0.794 µM [falling, full curve]

COc1ccc(Cl)cc1NC(=S)NCc1cccs1
AC50 [1]: 22.4 µM [falling, single point]

CCOC(=O)C1CCN(S(=O)(=O)c2c(C)n[nH]c2C)CC1
AC50 [1]: 29.1 µM [rising, single point]

Clc1ccc(/C=C\c2nccc3c2[nH]c2ccccc23)cc1
AC50 [1]: 35.5 µM [rising, single point]

COc1cc(OC)c(OC)cc1CNc1cc(C)ccc1OC
AC50 [1]: 35.5 µM [falling, single point]

CC(C)C(=O)N1N=C2CCCCC2C1(O)C(F)(F)F (stereo not given)
AC50 [1]: 2.82 µM [rising, partial curve, poor fit]

CC1=C[C@H]2OC(=O)[C@@H](C)[C@H]2C[C@@H]2[C@H]1C[C@@H](O)[C@@]2(C)O
AC50 [1]: 0.631 µM [rising, full curve, poor fit]

Cc1nc2ccc(NC(=O)Cc3ccccc3F)cc2s1
AC50 [1]: 14.1 µM [falling, single point]

Cc1c(CCC(=O)O)c(=O)oc2cc3occ(-c4ccc(Cl)cc4)c3cc12
AC50 [1]: 10 µM [rising, partial curve, poor fit]

O=c1[nH]c(=S)[nH]c2nc(-c3cccs3)cc(C(F)(F)F)c12
AC50 [1]: 8.91 µM [falling, partial curve, poor fit]

CN(C)S(=O)(=O)c1ccc(-n2cccc2)cc1
AC50 [1]: 12.6 µM [rising, partial curve, poor fit]

CCOc1ccc(N(C)S(=O)(=O)c2ccc(-c3cc(C)no3)s2)cc1
AC50 [2]: 35.5 µM [falling, single point]

Cc1ccc(NC(=O)Nc2cccc(C(F)(F)F)c2)nc1
AC50 [1]: 1 µM [rising, full curve, poor fit]

CCOC(=O)c1c(-c2cccs2)csc1NC(=O)C(C)(C)C
AC50 [1]: 7.31 µM [rising, partial curve]

Cc1cc(C(=O)N2CCc3c([nH]c4ccccc34)C2c2cccc(Cl)c2)nn1C (stereo not given)
AC50 [1]: 35.5 µM [falling, single point]

CCOC(=O)c1cc2sccc2n1CC(=O)N1CCCC1
AC50 [1]: 12.6 µM [rising, partial curve, poor fit]

Cc1ccc(S(=O)(=O)CNC(=O)c2ccccc2)cc1
AC50 [1]: 14.1 µM [rising, partial curve, poor fit]

COCCNC(=S)N/N=C(\C)c1ccc(Cl)c(Cl)c1Cl
AC50 [1]: 35.5 µM [falling, single point] | AC50 [2]: 15.8 µM [falling, partial curve]

COc1nc(N(CC(N)=O)S(=O)(=O)c2ccccc2)nc(C)c1Cl
AC50 [1]: 25.9 µM [falling, partial curve, poor fit]

O=C1C2CC=CCC2C(=O)N1c1n[nH]c(-c2ccccc2)n1 (stereo not given)
AC50 [1]: 9.2 µM [falling, partial curve, poor fit]

COc1ccc(CCN2Cc3c(cccc3[N+](=O)[O-])C2=O)cc1OC
AC50 [1]: 28.2 µM [rising, single point]

COc1ccccc1NC(=O)c1ccc(NS(C)(=O)=O)cc1
AC50 [1]: 4.61 µM [rising, partial curve, poor fit]

COc1ccc(OC)c(NC(=O)C2CCCN2C(=O)OCc2ccccc2)c1 (stereo not given)
AC50 [1]: 9.2 µM [falling, partial curve, poor fit]

Cc1nn(-c2ccccc2)c(N)c1Sc1ccc([N+](=O)[O-])cc1
AC50 [1]: 29.1 µM [falling, single point]

Cc1noc(NS(=O)(=O)c2ccc(NC(=O)CSc3nc4c(cc3C#N)CCCCC4)cc2)c1C
AC50 [1]: 2.91 µM [falling, full curve, poor fit]

O=C(NCc1ccco1)c1ccc2c(=O)n(Cc3ccco3)c(SCC(=O)N3CCCC3)nc2c1
AC50 [1]: 3.55 µM [falling, partial curve, poor fit]

Cc1ccc(NC(=O)C2(c3ccccc3)CCOCC2)cc1
AC50 [1]: 7.94 µM [rising, partial curve, poor fit]

Cc1cc(NC(=O)CSC2=NS(=O)(=O)c3cc(Cl)ccc3N2)no1
AC50 [1]: 29.1 µM [falling, single point]

CC(C)=NNc1nc(-c2ccccc2)c(C)s1
AC50 [1]: 22.4 µM [falling, single point]

CCC(C)(C)C1CCC(=NNC(=O)c2ccc(Br)o2)CC1 (stereo not given)
AC50 [1]: 9.2 µM [falling, single point]

CCc1cccc(Nc2cc(C)nc3ncnn23)c1
AC50 [1]: 29.1 µM [rising, single point] | AC50 [2]: 16.4 µM [falling, partial curve, poor fit]

Cc1ccc(NC(=O)CC2Oc3ccccc3NC2=O)c(C)c1 (stereo not given)
AC50 [1]: 1.84 µM [falling, single point]

CC(=O)Oc1ccc2ccccc2c1C(NC(=O)C(C)C)c1cccc([N+](=O)[O-])c1 (stereo not given)
AC50 [1]: 23.1 µM [falling, partial curve]

Cc1ccc(N=Nc2c(C)[nH]n(C(N)=S)c2=O)cc1
AC50 [1]: 4.47 µM [falling, full curve] | AC50 [2]: 1.78 µM [falling, full curve]

CCc1ccc(OCC(=O)N2CC(C(N)=O)Oc3ccccc32)cc1 (stereo not given)
AC50 [1]: 8.91 µM [rising, partial curve]

CN(C)c1ccc(-c2nc3ccccc3n2C)cc1
AC50 [1]: 12.6 µM [falling, single point]

Cc1cc(Cl)cc(Br)c1OCCCNCC(C)O (stereo not given)
AC50 [1]: 15.8 µM [falling, single point]

COc1ccc(S(=O)(=O)NC(C)C)cc1-n1cnnn1
AC50 [1]: 15.8 µM [falling, single point]

O=C(C(Cc1ccccc1)N1C(=O)c2ccccc2C1=O)N1c2ccccc2CCc2ccccc21 (stereo not given)
AC50 [1]: 20.6 µM [falling, partial curve]

Cc1nn(-c2ccccn2)c(N)c1N=O
AC50 [1]: 20 µM [falling, single point]

Cc1cccc(Nc2nc(NCc3ccco3)nc(N3CCOCC3)n2)c1
AC50 [1]: 32.6 µM [falling, single point]

O=C(O)c1ccccc1CSc1nc2ccccc2[nH]1
AC50 [1]: 12.6 µM [falling, partial curve, poor fit]

O=C(Cc1ccccc1)Nc1ccc(NC(=O)c2cccs2)cc1Cl
AC50 [1]: 2.82 µM [falling, full curve, poor fit]

Oc1cc(-c2ccccc2)c2ccccc2c1
AC50 [1]: 9.2 µM [rising, partial curve]

CCOC(=O)Cc1csc(NC(=O)Nc2ccc(F)cc2)n1
AC50 [1]: 15.8 µM [falling, single point]

COc1ccc(NC(=S)NC(NC(=O)c2cccc(Cl)c2)C(Cl)(Cl)Cl)c([N+](=O)[O-])c1 (stereo not given)
AC50 [1]: 32.6 µM [falling, partial curve, poor fit] | AC50 [2]: 23.1 µM [rising, partial curve, poor fit]

COC(=O)COc1ccc2c(=O)c(-c3ccccc3OC)coc2c1
AC50 [1]: 10 µM [falling, partial curve, poor fit]

O=C(Nc1ccc(/C=C/c2nc3ccccc3o2)cc1)c1c(F)cccc1F
AC50 [1]: 0.116 µM [rising, full curve]

CC(=O)Nc1ncc(Cc2ccc(Cl)cc2Cl)s1
AC50 [1]: 20 µM [rising, partial curve, poor fit]

Nc1c(C(=O)Nc2ccc(Cl)cc2)oc2ccccc12
AC50 [1]: 11.2 µM [falling, partial curve]

CCCc1nc(SCC(=O)NNC(=O)c2ccc(OC)cc2)c2ccccc2n1
AC50 [1]: 6.31 µM [falling, partial curve]

NS(=O)(=O)c1ccc(CCNC(=O)COC(=O)C2CCCN2C(=O)c2cccs2)cc1 (stereo not given)
AC50 [1]: 15.8 µM [rising, partial curve, poor fit]

CCN1C(=O)/C(=C/N2CCc3ccccc32)SC1=S
AC50 [1]: 1.46 µM [rising, partial curve, poor fit]

CCOc1ccc2oc(C(=O)OC(C(=O)NC(N)=O)C(C)C)c(C)c2c1 (stereo not given)
AC50 [1]: 7.08 µM [rising, partial curve, poor fit]

C=CCOC(=O)C(=O)/C=C/c1csc2ccccc12
AC50 [1]: 15.8 µM [rising, partial curve] | AC50 [2]: 20 µM [rising, single point]

O=C(/C=C/c1ccco1)Nc1ccccc1C(=O)O
AC50 [1]: 0.355 µM [falling, full curve]

O=C(CN1CCN(c2ccccn2)CC1)Nc1ccc(Oc2ccccc2)cc1
AC50 [1]: 0.562 µM [rising, full curve, poor fit]

Reference: PubChem BioAssay AID493014 (National Center for Advancing Translational Sciences (NCATS), 2011)
